# The list shows only some results of the screen, not a fair sample: its compounds were picked by chemical class. Other doses and runs of a compound may be missing. T/C gives the treated animals as a percentage of the vehicle group. Some entries give survivors of the animals treated and no T/C: the source files T/C as zero there, which appears to mark a toxic dose or a test without result, not a measured value. Some survivor counts are full or nearly so, which does not show that the dose was tolerated: the source hardly ever lists a survival T/C far under the control, and the zero likely stands for such cases as well. Survivors were counted at the toxicity check, usually on the fifth day, unless a day is given; later deaths do not show. Schedules are NCI's codes, read here as Q, the interval in days (D) or hours (H), X, the number of doses. Some schedule codes hold Z or #, which are not explained here. For survival time, this PubChem deposit counts one and a half times the control or more as active, and values a quarter to a half above the control carry no call in these data; other NCI protocols may use other cut-offs. Some entries were tested several times; the results are listed from low to high. Some T/C values carry the count of animals alive at the toxicity check (mostly the fifth day); where neither a count nor a note follows, no animal had died by that day. Some T/C values are marked as having no survivor count here; that says nothing about deaths at the dose.
# Test system: L1210 leukemia ip in BDF1 mice, survival T/C
# Assay: NCI In Vivo Anticancer Drug Screen. Data for tumor model L1210 Leukemia (intraperitoneal) in B6D2F1 (BDF1) mice
# Conditions: T/C endpoint: mean survival time, higher T/C = longer survival
# [1] = dose: 100.0 mg/kg/injection, schedule: Q01DX001 (ip), vehicle: saline
# [2] = dose: 200.0 mg/kg/injection, schedule: Q01DX001 (ip), vehicle: saline
# [3] = dose: 400.0 mg/kg/injection, schedule: Q01DX001 (ip), vehicle: saline
# [4] = dose: 25.0 mg/kg/injection, schedule: Q04DX003 (ip), vehicle: Klucel (hydroxypropylcellulose) (HPC)
# [5] = dose: 100.0 mg/kg/injection, schedule: Q01DX009 (ip), vehicle: saline
structure (smiles),measurement,setting,value
O=P(Nc1ncccn1)(N1CC1)N1CC1,T/C,"dose: 1.3 mg/kg/injection, schedule: Q01DX Z (ip), vehicle: saline",109 % of control
same,T/C,"dose: 2.0 mg/kg/injection, schedule: Q01DX Z (ip), vehicle: saline",108 % of control
same,T/C,"dose: 3.0 mg/kg/injection, schedule: Q01DX Z (ip), vehicle: saline",123 % of control
same,T/C,"dose: 5.0 mg/kg/injection, schedule: Q01DX Z (ip), vehicle: saline",161 % of control
same,T/C,"dose: 7.0 mg/kg/injection, schedule: Q01DX Z (ip), vehicle: saline",179 and 190 % of control
same,T/C,"dose: 10.0 mg/kg/injection, schedule: Q01DX Z (ip), vehicle: saline",169 and 223 % of control
same,T/C,"dose: 15.0 mg/kg/injection, schedule: Q01DX Z (ip), vehicle: saline","157, 180, 183 % of control"
same,T/C,"dose: 23.0 mg/kg/injection, schedule: Q01DX Z (ip), vehicle: saline","94, 134, 156 % of control"
same,T/C,"dose: 35.0 mg/kg/injection, schedule: Q01DX001 (ip), vehicle: saline",136 % of control
same,T/C,"dose: 35.0 mg/kg/injection, schedule: Q01DX Z (ip), vehicle: saline",109 % of control
same,survivor count,"dose: 52.0 mg/kg/injection, schedule: Q01DX Z (ip), vehicle: saline",4 of 6
same,T/C,"dose: 53.0 mg/kg/injection, schedule: Q01DX001 (ip), vehicle: saline",214 % of control
same,T/C,"dose: 80.0 mg/kg/injection, schedule: Q01DX001 (ip), vehicle: saline",202 % of control [5 of 6 alive]
same,survivor count,[1],0 of 6
same,survivor count,"dose: 120.0 mg/kg/injection, schedule: Q01DX001 (ip), vehicle: saline",2 of 6
same,survivor count,[2],1 of 6
same,survivor count,[3],4 of 6
FC1(F)SC2C3CCC(C3)C2C1(F)Cl (stereo not given),T/C,"dose: 0.75 mg/kg/injection, schedule: Q01DX009 (ip), vehicle: Klucel (hydroxypropylcellulose) (HPC)",91 % of control
same,T/C,"dose: 1.5 mg/kg/injection, schedule: Q01DX009 (ip), vehicle: Klucel (hydroxypropylcellulose) (HPC)",96 % of control [5 of 6 alive]
same,survivor count,"dose: 3.0 mg/kg/injection, schedule: Q01DX009 (ip), vehicle: Klucel (hydroxypropylcellulose) (HPC)",3 of 6
same,T/C,"dose: 6.0 mg/kg/injection, schedule: Q04DX003 (ip), vehicle: Klucel (hydroxypropylcellulose) (HPC)",98 % of control [5 of 6 alive]
same,survivor count,"dose: 6.25 mg/kg/injection, schedule: Q01DX009 (ip), vehicle: Klucel (hydroxypropylcellulose) (HPC)",0 of 6
same,T/C,"dose: 12.0 mg/kg/injection, schedule: Q04DX003 (ip), vehicle: Klucel (hydroxypropylcellulose) (HPC)",101 % of control
same,survivor count,"dose: 12.5 mg/kg/injection, schedule: Q01DX009 (ip), vehicle: Klucel (hydroxypropylcellulose) (HPC)",1 of 6
same,survivor count,"dose: 25.0 mg/kg/injection, schedule: Q01DX009 (ip), vehicle: Klucel (hydroxypropylcellulose) (HPC)",0 of 6
same,T/C,[4],107 % of control [4 of 6 alive]
same,survivor count,[4],0 of 6
same,survivor count,"dose: 50.0 mg/kg/injection, schedule: Q04DX003 (ip), vehicle: Klucel (hydroxypropylcellulose) (HPC)",1 of 6
same,survivor count,"dose: 100.0 mg/kg/injection, schedule: Q04DX003 (ip), vehicle: Klucel (hydroxypropylcellulose) (HPC)",0 of 6
same,survivor count,"dose: 200.0 mg/kg/injection, schedule: Q04DX003 (ip), vehicle: Klucel (hydroxypropylcellulose) (HPC)",0 of 6
same,survivor count,"dose: 400.0 mg/kg/injection, schedule: Q04DX003 (ip), vehicle: Klucel (hydroxypropylcellulose) (HPC)",0 of 6
CCOC(=O)COc1ccc(N(CCCl)CCCl)cc1,T/C,"dose: 1.5 mg/kg/injection, schedule: Q01DX Z (ip), vehicle: methylcellulose (MC)",111 % of control
same,T/C,"dose: 2.3 mg/kg/injection, schedule: Q01DX Z (ip), vehicle: methylcellulose (MC)",111 % of control
same,T/C,"dose: 3.5 mg/kg/injection, schedule: Q01DX Z (ip), vehicle: methylcellulose (MC)","101, 113, 137, 154 % of control"
same,T/C,"dose: 5.0 mg/kg/injection, schedule: Q01DX Z (ip), vehicle: methylcellulose (MC)","103, 119, 127, 142 % of control"
same,T/C,"dose: 8.0 mg/kg/injection, schedule: Q01DX Z (ip), vehicle: methylcellulose (MC)","129, 130, 140, 181 % of control"
same,T/C,"dose: 12.0 mg/kg/injection, schedule: Q01DX Z (ip), vehicle: methylcellulose (MC)","120, 127 [5 of 6 alive], 151, 165 % of control"
same,T/C,"dose: 18.0 mg/kg/injection, schedule: Q01DX Z (ip), vehicle: methylcellulose (MC)",125 % of control
same,T/C,"dose: 27.0 mg/kg/injection, schedule: Q01DX Z (ip), vehicle: methylcellulose (MC)",96 % of control
CN(C)C(=O)Oc1cccnc1,T/C,"dose: 12.5 mg/kg/injection, schedule: Q01DX009 (ip), vehicle: saline",100 % of control
same,T/C,"dose: 25.0 mg/kg/injection, schedule: Q01DX009 (ip), vehicle: saline",96 % of control
same,T/C,"dose: 25.0 mg/kg/injection, schedule: Q04DX003 (ip), vehicle: saline",106 % of control
same,T/C,"dose: 50.0 mg/kg/injection, schedule: Q01DX009 (ip), vehicle: saline",102 and 107 % of control
same,T/C,"dose: 50.0 mg/kg/injection, schedule: Q04DX003 (ip), vehicle: saline",109 % of control
same,survivor count,[5],3 of 6
same,T/C,"dose: 100.0 mg/kg/injection, schedule: Q04DX003 (ip), vehicle: saline",96 [4 of 6 alive] and 105 % of control
same,survivor count,"dose: 200.0 mg/kg/injection, schedule: Q01DX009 (ip), vehicle: saline",0 of 6
same,survivor count,"dose: 200.0 mg/kg/injection, schedule: Q04DX003 (ip), vehicle: saline",0 of 6
same,survivor count,"dose: 400.0 mg/kg/injection, schedule: Q04DX003 (ip), vehicle: saline",0 of 6
O=[N+]([O-])c1cc([N+](=O)[O-])c(CCN2CCCCC2)c([N+](=O)[O-])c1,T/C,"dose: 25.0 mg/kg/injection, schedule: Q04DX003 (ip), vehicle: other",95 % of control [survivor count not shown]
same,T/C,"dose: 50.0 mg/kg/injection, schedule: Q04DX003 (ip), vehicle: other",94 % of control [survivor count not shown]
same,T/C,"dose: 100.0 mg/kg/injection, schedule: Q01DX001 (ip), vehicle: other",109 % of control [survivor count not shown]
same,T/C,"dose: 100.0 mg/kg/injection, schedule: Q04DX003 (ip), vehicle: other",95 % of control [survivor count not shown]
COc1c(OC)c2c(C)c3ccccc3c(C)c2c2ccccc12.O=C1c2cc([N+](=O)[O-])ccc2-c2c1cc([N+](=O)[O-])cc2[N+](=O)[O-],T/C,"dose: 100.0 mg/kg/injection, schedule: Q01DX001 (ip), vehicle: saline with Tween-80",89 % of control
same,survivor count,"dose: 200.0 mg/kg/injection, schedule: Q01DX001 (ip), vehicle: saline with Tween-80",6 of 6
same,T/C,"dose: 400.0 mg/kg/injection, schedule: Q01DX001 (ip), vehicle: saline with Tween-80",88 % of control
COc1ccc(NC(=O)N(CCCl)CCCl)cc1,T/C,"dose: 1.0 mg/kg/injection, schedule: Q01DX009 (ip), vehicle: saline",98 % of control
same,T/C,"dose: 2.5 mg/kg/injection, schedule: Q01DX009 (ip), vehicle: saline",101 % of control
same,T/C,"dose: 5.0 mg/kg/injection, schedule: Q01DX009 (ip), vehicle: saline",100 % of control
same,T/C,"dose: 10.0 mg/kg/injection, schedule: Q01DX009 (ip), vehicle: saline",103 % of control
same,T/C,"dose: 21.0 mg/kg/injection, schedule: Q01DX009 (ip), vehicle: saline",147 % of control
same,T/C,"dose: 36.0 mg/kg/injection, schedule: Q01DX009 (ip), vehicle: saline",153 % of control
same,T/C,"dose: 50.0 mg/kg/injection, schedule: Q01DX001 (ip), vehicle: saline",102 and 125 % of control
same,T/C,"dose: 66.0 mg/kg/injection, schedule: Q01DX009 (ip), vehicle: saline",131 % of control
same,T/C,[1],111 and 138 % of control
same,T/C,[5],104 % of control [5 of 6 alive]
same,survivor count,"dose: 150.0 mg/kg/injection, schedule: Q01DX009 (ip), vehicle: saline",5 of 6
same,T/C,[2],127 and 138 % of control
same,T/C,[3],152 % of control [5 of 6 alive]
same,survivor count,[3],0 of 4
